Measurements from patent US20160229920A1.
No constants are given. Whether binding was seen depends on the method and setting. Some binding calls cover weakened binding; strength is not graded here.

By UniProt entry, the sequences of proteins in these tests, tags left out. Where a name states a change or a piece, a line headed by the entry shows the natural chain unless it says otherwise. Residues count along the entry.
UniProt P21860: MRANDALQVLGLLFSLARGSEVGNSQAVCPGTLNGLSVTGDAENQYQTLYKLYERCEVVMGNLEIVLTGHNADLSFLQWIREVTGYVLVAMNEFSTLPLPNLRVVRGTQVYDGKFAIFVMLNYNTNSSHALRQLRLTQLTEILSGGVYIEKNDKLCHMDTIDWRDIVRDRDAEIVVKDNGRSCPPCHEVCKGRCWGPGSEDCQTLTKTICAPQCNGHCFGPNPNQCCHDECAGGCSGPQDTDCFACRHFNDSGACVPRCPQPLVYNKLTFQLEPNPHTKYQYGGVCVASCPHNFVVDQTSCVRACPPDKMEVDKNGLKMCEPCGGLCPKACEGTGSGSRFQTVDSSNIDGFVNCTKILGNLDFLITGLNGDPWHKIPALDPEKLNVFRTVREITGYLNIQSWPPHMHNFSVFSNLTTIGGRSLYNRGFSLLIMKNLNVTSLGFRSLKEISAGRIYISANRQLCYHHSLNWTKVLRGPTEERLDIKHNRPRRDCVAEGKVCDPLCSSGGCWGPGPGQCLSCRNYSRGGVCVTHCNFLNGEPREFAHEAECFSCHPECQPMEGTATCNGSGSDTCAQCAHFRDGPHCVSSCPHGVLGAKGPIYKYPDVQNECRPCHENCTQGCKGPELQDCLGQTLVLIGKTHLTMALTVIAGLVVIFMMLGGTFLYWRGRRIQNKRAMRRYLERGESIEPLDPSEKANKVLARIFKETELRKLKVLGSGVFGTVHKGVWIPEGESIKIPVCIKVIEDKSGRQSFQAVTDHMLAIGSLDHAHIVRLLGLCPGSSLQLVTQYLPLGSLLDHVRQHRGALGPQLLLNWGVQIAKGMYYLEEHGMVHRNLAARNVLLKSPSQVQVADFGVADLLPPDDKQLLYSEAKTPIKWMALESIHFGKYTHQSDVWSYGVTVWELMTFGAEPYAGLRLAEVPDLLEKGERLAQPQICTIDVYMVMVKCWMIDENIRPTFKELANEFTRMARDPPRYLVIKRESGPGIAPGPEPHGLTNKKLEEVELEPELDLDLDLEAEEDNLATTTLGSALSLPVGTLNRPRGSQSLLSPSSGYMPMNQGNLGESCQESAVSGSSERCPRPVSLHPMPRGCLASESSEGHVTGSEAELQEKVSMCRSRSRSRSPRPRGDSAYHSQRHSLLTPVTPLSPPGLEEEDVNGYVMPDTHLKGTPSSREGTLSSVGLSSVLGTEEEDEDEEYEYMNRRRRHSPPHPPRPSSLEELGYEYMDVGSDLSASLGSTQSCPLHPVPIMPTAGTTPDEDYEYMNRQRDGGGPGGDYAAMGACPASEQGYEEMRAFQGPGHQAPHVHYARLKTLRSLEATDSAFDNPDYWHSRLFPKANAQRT
HER3 on the plasma membrane of SK-BR-3 and BT-474 breast cancer cells: residues 20-1342 of P21860
recombinant HER3 (immobilized): residues 20-643 of P21860

Tests used:
[1] = molecular target: HER3 on the plasma membrane of SK-BR-3 and BT-474 breast cancer cells (human) (UniProt P21860); experiment: flow cytometry on SK-BR-3 and BT-474 cells, 50 nM labeled antibody
[2] = molecular target: recombinant HER3 (immobilized) (UniProt P21860); experiment: SPR (BIAcore), antigen immobilized; data not shown
[3] = molecular target: HER3 on the plasma membrane of SK-BR-3 and BT-474 breast cancer cells (human) (UniProt P21860); experiment: fluorescence microscopy of SK-BR-3 cells treated with 50 nM antibody for 15 min at 37 C and chased 45 min; detection with Alexa 555 anti-human IgG, co-stain LAMP-1
[4] = molecular target: HER3 on the plasma membrane of SK-BR-3 and BT-474 breast cancer cells (human) (UniProt P21860); experiment: fluorescence microscopy of SK-BR-3 cells pulsed with 50 nM antibody for 5 min at 37 C and chased 0, 10 or 20 min; detection with Alexa 555 anti-human IgG, co-stain EEA-1
[5] = molecular target: HER3 on the plasma membrane of SK-BR-3 and BT-474 breast cancer cells (human) (UniProt P21860); experiment: flow cytometry, 50 nM Alexa 647-labeled Ab6 on SK-BR-3 and BT-474 cells after 24 h medium, DMSO or 1 uM lapatinib; single concentration

binding [1]: binds | binding [2]: binds | binding [3]: binds | binding [4]: binds | binding [5]: binds
B1: anti-HER3 antibody Ab6 (antibody, human IgG1, V domains shown)
VH: QVQLLESGGGLVQPGGSLRLSCAASGFTFSHYVMAWVRQAPGKGLEWVSSISSSGGWTLYADSVKGRFTISRDNSKNTLYLQMNSLRAEDTAVYYCTRGLKMATIFDYWGQGTLVTVSS
VL: DIQLTQPASVSGSPGQSITISCTGTSSDVGSYNVVSWYQQHPGKAPKLIIYEVSQRPSGVSNRFSGSKSGNTASLTISGLQTEDEADYYCCSYAGSSIFVIFGGGTKVTVL
